From the supplement of paper PMC12823440, “Inhibitors supercharge kinase turnover through native proteolytic circuits” (Nature, 2025)
Structures can show the parent of a compound that is named as a salt. Some of the results follow. The calls rarely recur for the same compound in another form.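 Kinases were expressed as nanoluciferase fusions in K562 cells and luminescence was read every 4 h between 2 and 18 h as percent of control, DMSO set to 100% and a positive control to 0%. A time point counts as decreased when the signal drops significantly (2 sigma). The hit call is the authors' own, does not follow from the count of time points alone, and its rule is not shown.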

Protein sequences, listed by entry. Tags and fused reporters are not part of them. Lines headed by an entry give the natural chain unless they say otherwise; changes in a name come on top.
UniProt Q06187: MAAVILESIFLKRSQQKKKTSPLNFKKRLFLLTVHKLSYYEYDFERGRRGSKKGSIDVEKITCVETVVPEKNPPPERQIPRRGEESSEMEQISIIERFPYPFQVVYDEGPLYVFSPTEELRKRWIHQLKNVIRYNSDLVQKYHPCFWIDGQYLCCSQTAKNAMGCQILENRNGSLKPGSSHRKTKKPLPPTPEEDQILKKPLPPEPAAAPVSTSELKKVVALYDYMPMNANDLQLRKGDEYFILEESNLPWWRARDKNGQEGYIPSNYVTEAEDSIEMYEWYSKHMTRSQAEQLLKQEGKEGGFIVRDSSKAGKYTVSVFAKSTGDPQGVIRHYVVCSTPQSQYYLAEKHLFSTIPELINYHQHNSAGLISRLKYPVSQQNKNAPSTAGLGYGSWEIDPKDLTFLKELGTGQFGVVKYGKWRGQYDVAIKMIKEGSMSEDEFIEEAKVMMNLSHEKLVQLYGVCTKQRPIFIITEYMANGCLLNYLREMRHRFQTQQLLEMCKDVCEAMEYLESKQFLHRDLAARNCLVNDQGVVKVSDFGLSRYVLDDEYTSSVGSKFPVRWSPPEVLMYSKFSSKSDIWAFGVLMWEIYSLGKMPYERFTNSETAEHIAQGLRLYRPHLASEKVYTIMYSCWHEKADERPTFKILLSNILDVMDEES
UniProt Q9UQM7, whole entry: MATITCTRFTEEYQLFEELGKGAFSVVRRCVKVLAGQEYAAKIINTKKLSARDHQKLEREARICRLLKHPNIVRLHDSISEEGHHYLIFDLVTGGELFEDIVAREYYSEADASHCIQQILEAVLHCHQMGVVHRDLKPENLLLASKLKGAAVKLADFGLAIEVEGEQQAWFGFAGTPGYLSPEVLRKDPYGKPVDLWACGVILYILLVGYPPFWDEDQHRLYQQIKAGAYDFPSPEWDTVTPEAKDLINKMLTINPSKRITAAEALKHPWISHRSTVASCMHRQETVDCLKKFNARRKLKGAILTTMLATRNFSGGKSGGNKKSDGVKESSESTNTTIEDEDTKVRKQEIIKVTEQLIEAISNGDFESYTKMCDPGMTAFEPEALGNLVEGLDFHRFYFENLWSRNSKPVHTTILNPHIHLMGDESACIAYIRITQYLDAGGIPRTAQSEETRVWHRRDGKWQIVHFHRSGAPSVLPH
UniProt Q15131: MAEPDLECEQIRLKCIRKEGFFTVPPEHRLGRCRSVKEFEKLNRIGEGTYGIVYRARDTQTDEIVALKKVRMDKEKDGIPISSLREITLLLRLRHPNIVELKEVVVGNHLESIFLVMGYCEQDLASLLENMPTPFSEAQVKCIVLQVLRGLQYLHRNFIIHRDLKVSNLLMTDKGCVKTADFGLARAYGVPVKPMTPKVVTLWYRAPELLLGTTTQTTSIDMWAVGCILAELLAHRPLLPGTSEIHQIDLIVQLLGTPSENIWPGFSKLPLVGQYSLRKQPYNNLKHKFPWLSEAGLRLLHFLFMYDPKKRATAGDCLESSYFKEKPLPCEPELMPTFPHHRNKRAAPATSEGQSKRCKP
UniProt Q00535, whole entry, looked up: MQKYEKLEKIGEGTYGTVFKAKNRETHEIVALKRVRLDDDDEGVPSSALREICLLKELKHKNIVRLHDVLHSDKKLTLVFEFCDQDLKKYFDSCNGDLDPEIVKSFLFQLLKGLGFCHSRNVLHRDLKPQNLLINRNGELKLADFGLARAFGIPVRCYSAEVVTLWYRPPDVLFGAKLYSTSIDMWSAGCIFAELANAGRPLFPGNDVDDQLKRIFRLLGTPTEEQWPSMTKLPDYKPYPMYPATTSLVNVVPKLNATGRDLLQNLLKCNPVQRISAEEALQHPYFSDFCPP
UniProt Q00534, whole entry: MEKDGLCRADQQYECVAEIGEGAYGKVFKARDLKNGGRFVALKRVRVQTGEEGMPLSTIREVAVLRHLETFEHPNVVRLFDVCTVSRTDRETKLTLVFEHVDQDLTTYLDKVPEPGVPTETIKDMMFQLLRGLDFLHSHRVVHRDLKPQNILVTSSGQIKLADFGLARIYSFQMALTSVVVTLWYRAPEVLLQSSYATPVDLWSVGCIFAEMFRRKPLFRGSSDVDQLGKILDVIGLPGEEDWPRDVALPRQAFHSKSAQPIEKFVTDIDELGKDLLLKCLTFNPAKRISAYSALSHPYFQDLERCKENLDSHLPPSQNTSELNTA
UniProt P07333, whole entry: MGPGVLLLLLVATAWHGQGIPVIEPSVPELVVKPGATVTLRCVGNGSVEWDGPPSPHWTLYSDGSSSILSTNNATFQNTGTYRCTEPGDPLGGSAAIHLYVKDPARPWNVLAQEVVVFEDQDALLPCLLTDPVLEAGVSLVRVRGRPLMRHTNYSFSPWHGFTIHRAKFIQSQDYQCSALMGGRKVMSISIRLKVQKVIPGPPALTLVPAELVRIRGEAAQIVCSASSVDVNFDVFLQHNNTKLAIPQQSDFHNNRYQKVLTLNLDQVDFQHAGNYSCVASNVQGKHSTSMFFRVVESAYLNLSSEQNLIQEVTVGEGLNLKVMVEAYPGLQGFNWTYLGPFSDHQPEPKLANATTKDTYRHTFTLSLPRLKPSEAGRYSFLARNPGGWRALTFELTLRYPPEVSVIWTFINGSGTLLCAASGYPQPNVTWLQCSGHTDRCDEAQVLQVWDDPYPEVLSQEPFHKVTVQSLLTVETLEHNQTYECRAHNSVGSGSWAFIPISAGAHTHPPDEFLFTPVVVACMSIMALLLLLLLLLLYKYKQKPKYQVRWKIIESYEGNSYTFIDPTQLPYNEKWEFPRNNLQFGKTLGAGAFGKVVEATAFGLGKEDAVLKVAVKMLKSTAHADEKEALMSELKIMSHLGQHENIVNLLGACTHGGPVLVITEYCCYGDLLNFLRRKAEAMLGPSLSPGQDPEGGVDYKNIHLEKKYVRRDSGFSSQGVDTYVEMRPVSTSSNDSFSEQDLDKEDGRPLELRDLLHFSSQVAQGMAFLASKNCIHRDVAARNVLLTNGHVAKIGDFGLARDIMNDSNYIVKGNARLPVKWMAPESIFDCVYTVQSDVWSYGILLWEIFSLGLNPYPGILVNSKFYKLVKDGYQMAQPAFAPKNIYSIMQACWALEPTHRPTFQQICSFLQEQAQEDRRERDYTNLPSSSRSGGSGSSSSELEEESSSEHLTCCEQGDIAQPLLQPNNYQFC
UniProt P41240: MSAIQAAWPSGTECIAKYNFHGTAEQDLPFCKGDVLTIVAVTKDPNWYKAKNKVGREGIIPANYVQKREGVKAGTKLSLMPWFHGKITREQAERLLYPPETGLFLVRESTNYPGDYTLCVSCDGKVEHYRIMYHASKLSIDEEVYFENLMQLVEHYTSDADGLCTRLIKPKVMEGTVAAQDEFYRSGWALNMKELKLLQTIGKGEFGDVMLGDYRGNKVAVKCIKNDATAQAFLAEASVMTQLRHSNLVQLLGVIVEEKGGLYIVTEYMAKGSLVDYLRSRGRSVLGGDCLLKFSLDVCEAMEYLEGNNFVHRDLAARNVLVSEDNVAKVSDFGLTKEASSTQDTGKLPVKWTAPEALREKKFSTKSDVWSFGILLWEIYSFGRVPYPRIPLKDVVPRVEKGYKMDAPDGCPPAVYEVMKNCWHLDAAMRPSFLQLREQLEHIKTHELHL
UniProt P48729: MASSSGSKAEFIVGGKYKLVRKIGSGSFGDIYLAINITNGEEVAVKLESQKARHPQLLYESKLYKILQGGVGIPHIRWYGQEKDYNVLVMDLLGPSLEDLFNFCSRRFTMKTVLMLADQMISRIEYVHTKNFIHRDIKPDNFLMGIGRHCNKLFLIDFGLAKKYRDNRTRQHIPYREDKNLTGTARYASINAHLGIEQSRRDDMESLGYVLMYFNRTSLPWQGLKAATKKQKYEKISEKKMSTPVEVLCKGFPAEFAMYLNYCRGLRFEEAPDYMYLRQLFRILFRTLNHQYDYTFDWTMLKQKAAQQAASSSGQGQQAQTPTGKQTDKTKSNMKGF
UniProt P48730: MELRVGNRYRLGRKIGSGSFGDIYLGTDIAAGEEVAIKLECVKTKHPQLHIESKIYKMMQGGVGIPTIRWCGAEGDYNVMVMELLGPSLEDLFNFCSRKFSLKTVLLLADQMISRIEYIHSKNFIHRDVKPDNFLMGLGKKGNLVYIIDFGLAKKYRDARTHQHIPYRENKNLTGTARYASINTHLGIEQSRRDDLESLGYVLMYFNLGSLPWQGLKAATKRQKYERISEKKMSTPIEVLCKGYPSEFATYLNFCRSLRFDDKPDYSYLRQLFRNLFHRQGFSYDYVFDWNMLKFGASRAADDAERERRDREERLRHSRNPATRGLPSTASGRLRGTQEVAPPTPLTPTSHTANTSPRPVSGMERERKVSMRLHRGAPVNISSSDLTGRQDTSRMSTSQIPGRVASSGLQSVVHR
UniProt Q08345: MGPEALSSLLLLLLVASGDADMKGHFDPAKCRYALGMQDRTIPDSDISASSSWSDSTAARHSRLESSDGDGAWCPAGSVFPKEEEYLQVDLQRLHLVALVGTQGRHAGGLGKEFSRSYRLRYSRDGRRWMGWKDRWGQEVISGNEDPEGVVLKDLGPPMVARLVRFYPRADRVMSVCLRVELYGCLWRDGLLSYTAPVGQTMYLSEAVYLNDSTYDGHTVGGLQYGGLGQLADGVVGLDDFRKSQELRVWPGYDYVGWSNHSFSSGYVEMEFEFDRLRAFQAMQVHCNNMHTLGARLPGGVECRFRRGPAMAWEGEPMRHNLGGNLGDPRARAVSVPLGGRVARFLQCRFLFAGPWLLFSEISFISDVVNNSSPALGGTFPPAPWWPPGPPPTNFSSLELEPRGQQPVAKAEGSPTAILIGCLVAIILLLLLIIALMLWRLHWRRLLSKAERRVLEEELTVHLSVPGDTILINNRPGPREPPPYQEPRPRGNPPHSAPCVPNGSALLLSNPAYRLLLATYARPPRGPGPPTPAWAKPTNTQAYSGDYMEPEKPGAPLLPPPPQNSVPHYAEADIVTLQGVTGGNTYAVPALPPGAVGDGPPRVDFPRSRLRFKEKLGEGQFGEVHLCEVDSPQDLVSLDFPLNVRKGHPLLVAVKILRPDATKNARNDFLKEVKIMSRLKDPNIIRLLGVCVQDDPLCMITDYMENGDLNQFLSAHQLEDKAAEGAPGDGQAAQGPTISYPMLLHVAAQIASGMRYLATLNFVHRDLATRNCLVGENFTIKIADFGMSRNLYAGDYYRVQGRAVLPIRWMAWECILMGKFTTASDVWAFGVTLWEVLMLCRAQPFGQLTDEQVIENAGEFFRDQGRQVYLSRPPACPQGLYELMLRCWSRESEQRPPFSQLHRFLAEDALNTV
UniProt Q9Y463, whole entry, looked up: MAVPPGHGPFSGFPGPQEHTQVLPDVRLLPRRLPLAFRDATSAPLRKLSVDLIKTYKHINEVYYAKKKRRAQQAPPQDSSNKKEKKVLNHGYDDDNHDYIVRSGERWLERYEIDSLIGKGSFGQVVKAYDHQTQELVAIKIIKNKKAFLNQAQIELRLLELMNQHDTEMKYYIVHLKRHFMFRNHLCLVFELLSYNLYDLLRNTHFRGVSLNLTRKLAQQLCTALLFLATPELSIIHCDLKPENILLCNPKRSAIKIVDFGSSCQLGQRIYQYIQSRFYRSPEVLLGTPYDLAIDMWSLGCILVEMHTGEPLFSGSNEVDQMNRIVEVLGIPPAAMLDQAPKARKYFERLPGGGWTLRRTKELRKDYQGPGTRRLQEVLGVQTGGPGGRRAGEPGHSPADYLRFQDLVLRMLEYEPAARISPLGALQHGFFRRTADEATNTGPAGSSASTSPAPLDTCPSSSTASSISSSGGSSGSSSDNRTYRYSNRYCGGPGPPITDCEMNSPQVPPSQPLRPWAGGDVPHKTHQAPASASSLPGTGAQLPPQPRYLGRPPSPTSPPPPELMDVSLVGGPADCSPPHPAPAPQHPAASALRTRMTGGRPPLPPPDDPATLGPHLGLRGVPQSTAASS
UniProt Q92630: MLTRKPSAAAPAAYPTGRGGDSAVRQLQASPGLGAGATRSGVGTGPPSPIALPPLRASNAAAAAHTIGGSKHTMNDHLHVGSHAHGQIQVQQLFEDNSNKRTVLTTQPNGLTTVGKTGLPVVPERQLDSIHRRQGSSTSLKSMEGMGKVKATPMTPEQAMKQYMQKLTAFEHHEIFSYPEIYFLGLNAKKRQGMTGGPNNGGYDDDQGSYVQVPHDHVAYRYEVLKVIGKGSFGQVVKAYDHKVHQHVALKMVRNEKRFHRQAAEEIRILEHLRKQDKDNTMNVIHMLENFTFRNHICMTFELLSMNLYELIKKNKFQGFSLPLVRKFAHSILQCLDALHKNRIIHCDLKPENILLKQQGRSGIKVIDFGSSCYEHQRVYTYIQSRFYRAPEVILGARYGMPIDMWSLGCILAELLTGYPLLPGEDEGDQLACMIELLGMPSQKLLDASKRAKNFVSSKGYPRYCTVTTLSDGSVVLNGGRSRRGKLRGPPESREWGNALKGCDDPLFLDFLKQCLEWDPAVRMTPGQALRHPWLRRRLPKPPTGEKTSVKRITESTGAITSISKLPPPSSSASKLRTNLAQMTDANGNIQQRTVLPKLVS

Columns and labels:
Test in all cases: kinase-Nluc reporter destabilization hit call (1 = scored as downregulated) (binary); higher = compound decreases kinase abundance
Settings in all cases: K562; 2-18 h
BRAF_V600E = test system: BRAF_V600E
BTK = BTK (UniProt Q06187)
CAMK2A = CAMK2A (UniProt Q9UQM7)
CAMK2G = CAMK2G (UniProt Q13555)
CDK10 = CDK10 (UniProt Q15131)
CDK2 = CDK2 (UniProt P24941)
CDK3 = CDK3 (UniProt Q00526)
CDK4 = CDK4 (UniProt P11802)
CDK5 = CDK5 (UniProt Q00535)
CDK6 = CDK6 (UniProt Q00534)
CDK7 = CDK7 (UniProt P50613)
CDK9 = CDK9 (UniProt P50750)
CHEK2 = CHEK2 (UniProt O96017)
CSF1R = CSF1R (UniProt P07333)
CSK = CSK (UniProt P41240)
CSNK1A1 = CSNK1A1 (UniProt P48729)
CSNK1D = CSNK1D (UniProt P48730)
DDR1 = DDR1 (UniProt Q08345)
DYRK1B = DYRK1B (UniProt Q9Y463)
DYRK2 = DYRK2 (UniProt Q92630)

Measured: kinase-Nluc reporter destabilization hit call

Nc1ncnc2c1ncn2[C@@H]1O[C@H](CO)C[C@H]1O [Cordycepin] (10 µM)
inactive: BRAF_V600E 0 | BTK 0 | CAMK2A 0 | CAMK2G 0 | CDK10 = 0 | CDK2 = 0 | CDK3 = 0 | CDK4 = 0 | CDK5 = 0 | CDK6 = 0 | CDK7 = 0 | CDK9 = 0 | CHEK2 = 0 | CSF1R 0 | CSK 0 | CSNK1A1 = 0 | CSNK1D 0 | DDR1 = 0 | DYRK1B 0 | DYRK2 = 0

COc1ccc(-c2ccc3c(N4CCOC[C@@H]4C)nc(N4CCOC[C@@H]4C)nc3n2)cc1CO (2.5 µM)
inactive: BRAF_V600E 0 | BTK 0 | CAMK2A 0 | CAMK2G 0 | CDK10 = 0 | CDK2 = 0 | CDK3 = 0 | CDK4 = 0 | CDK5 = 0 | CDK6 = 0 | CDK7 = 0 | CDK9 = 0 | CHEK2 = 0 | CSF1R 0 | CSK 0 | CSNK1A1 = 0 | CSNK1D 0 | DDR1 = 0 | DYRK1B 0 | DYRK2 = 0

C[C@]1(O)CCC[C@@H]1n1c(=O)c(C(F)F)cc2cnc(NC3CCN(S(C)(=O)=O)CC3)nc21 (10 µM)
inactive: BRAF_V600E 0 | BTK 0 | CAMK2A 0 | CAMK2G 0 | CDK10 = 0 | CDK2 = 0 | CDK3 = 0 | CDK4 = 0 | CDK5 = 0 | CDK6 = 0 | CDK7 = 0 | CDK9 = 0 | CHEK2 = 0 | CSF1R 0 | CSK 0 | CSNK1A1 = 0 | CSNK1D 0 | DDR1 = 0 | DYRK1B 0 | DYRK2 = 0

COC1(c2sc3c(N4CCOCC4)nc(-c4cnc(N)nc4)nc3c2C)COC1 (2.5 µM)
inactive: BRAF_V600E 0 | BTK 0 | CAMK2A 0 | CAMK2G 0 | CDK10 = 0 | CDK2 = 0 | CDK3 = 0 | CDK4 = 0 | CDK5 = 0 | CDK6 = 0 | CDK7 = 0 | CDK9 = 0 | CHEK2 = 0 | CSF1R 0 | CSK 0 | CSNK1A1 = 0 | CSNK1D 0 | DDR1 = 0 | DYRK1B 0 | DYRK2 = 0

CCN(CC)S(=O)(=O)c1ccc(OC)c(N2CCN(C(=O)c3ccc(F)cc3C(F)(F)F)CC2)c1 (10 µM)
inactive: BRAF_V600E 0 | BTK 0 | CAMK2A 0 | CAMK2G 0 | CDK10 = 0 | CDK2 = 0 | CDK3 = 0 | CDK4 = 0 | CDK5 = 0 | CDK6 = 0 | CDK7 = 0 | CDK9 = 0 | CHEK2 = 0 | CSF1R 0 | CSK 0 | CSNK1A1 = 0 | CSNK1D 0 | DDR1 = 0 | DYRK1B 0 | DYRK2 = 0

O=C(/C=C/c1ccc(O[C@@H]2O[C@H](CO)[C@@H](O)[C@H](O)[C@H]2O[C@@H]2OC[C@](O)(CO)[C@H]2O)cc1)c1ccc(O)cc1O [Isoliquiritin apioside] (10 µM)
inactive: BRAF_V600E 0 | BTK 0 | CAMK2A 0 | CAMK2G 0 | CDK10 = 0 | CDK2 = 0 | CDK3 = 0 | CDK4 = 0 | CDK5 = 0 | CDK6 = 0 | CDK7 = 0 | CDK9 = 0 | CHEK2 = 0 | CSF1R 0 | CSK 0 | CSNK1A1 = 0 | CSNK1D 0 | DDR1 = 0 | DYRK1B 0 | DYRK2 = 0

COc1ccc(Cl)cc1NC(=O)Nc1cc(C)nc2ccccc12 (2.5 µM)
inactive: BRAF_V600E 0 | BTK 0 | CAMK2A 0 | CAMK2G 0 | CDK10 = 0 | CDK2 = 0 | CDK3 = 0 | CDK4 = 0 | CDK5 = 0 | CDK6 = 0 | CDK7 = 0 | CDK9 = 0 | CHEK2 = 0 | CSF1R 0 | CSK 0 | CSNK1A1 = 0 | CSNK1D 0 | DDR1 = 0 | DYRK1B 0 | DYRK2 = 0

O=C1NC(=O)C(=Cc2ccc(-c3ccc(F)cc3)o2)S1 (stereo in doubt) (10 µM)
inactive: BRAF_V600E 0 | BTK 0 | CAMK2A 0 | CAMK2G 0 | CDK10 = 0 | CDK2 = 0 | CDK3 = 0 | CDK4 = 0 | CDK5 = 0 | CDK6 = 0 | CDK7 = 0 | CDK9 = 0 | CHEK2 = 0 | CSF1R 0 | CSK 0 | CSNK1A1 = 0 | CSNK1D 0 | DDR1 = 0 | DYRK1B 0 | DYRK2 = 0

OC(COc1ccc(C(F)(F)F)cc1)CN(Cc1ccccc1)Cc1ccccc1 (stereo not given) (2.5 µM)
inactive: BRAF_V600E 0 | BTK 0 | CAMK2A 0 | CAMK2G 0 | CDK10 = 0 | CDK2 = 0 | CDK3 = 0 | CDK4 = 0 | CDK5 = 0 | CDK6 = 0 | CDK7 = 0 | CDK9 = 0 | CHEK2 = 0 | CSF1R 0 | CSK 0 | CSNK1A1 = 0 | CSNK1D 0 | DDR1 = 0 | DYRK1B 0 | DYRK2 = 0

For reference, two of the compounds above:
CCN(CC)S(=O)(=O)c1ccc(OC)c(N2CCN(C(=O)c3ccc(F)cc3C(F)(F)F)CC2)c1 (10 µM)
inactive: BRAF_V600E 0 | BTK 0 | CAMK2A 0 | CAMK2G 0 | CDK10 = 0 | CDK2 = 0 | CDK3 = 0 | CDK4 = 0 | CDK5 = 0 | CDK6 = 0 | CDK7 = 0 | CDK9 = 0 | CHEK2 = 0 | CSF1R 0 | CSK 0 | CSNK1A1 = 0 | CSNK1D 0 | DDR1 = 0 | DYRK1B 0 | DYRK2 = 0

O=C(/C=C/c1ccc(O[C@@H]2O[C@H](CO)[C@@H](O)[C@H](O)[C@H]2O[C@@H]2OC[C@](O)(CO)[C@H]2O)cc1)c1ccc(O)cc1O [Isoliquiritin apioside] (10 µM)
inactive: BRAF_V600E 0 | BTK 0 | CAMK2A 0 | CAMK2G 0 | CDK10 = 0 | CDK2 = 0 | CDK3 = 0 | CDK4 = 0 | CDK5 = 0 | CDK6 = 0 | CDK7 = 0 | CDK9 = 0 | CHEK2 = 0 | CSF1R 0 | CSK 0 | CSNK1A1 = 0 | CSNK1D 0 | DDR1 = 0 | DYRK1B 0 | DYRK2 = 0

Next records follow.

Cc1noc(C)c1-c1ccc(-c2cc(C(N)=O)c(NC(N)=O)s2)c(O[C@H]2CCNC2)c1 (10 µM)
inactive: BRAF_V600E 0 | BTK 0 | CAMK2A 0 | CAMK2G 0 | CDK10 = 0 | CDK2 = 0 | CDK3 = 0 | CDK4 = 0 | CDK5 = 0 | CDK6 = 0 | CDK7 = 0 | CDK9 = 0 | CHEK2 = 0 | CSF1R 0 | CSK 0 | CSNK1A1 = 0 | CSNK1D 0 | DDR1 = 0 | DYRK1B 0 | DYRK2 = 0

CC(=O)N1CCN(c2cc(-c3cc(C(F)(F)F)c4c(N)ncnn34)ccc2C#N)C(=O)C1(C)C (10 µM)
inactive: BRAF_V600E 0 | BTK 0 | CAMK2A 0 | CAMK2G 0 | CDK10 = 0 | CDK2 = 0 | CDK3 = 0 | CDK4 = 0 | CDK5 = 0 | CDK6 = 0 | CDK7 = 0 | CDK9 = 0 | CHEK2 = 0 | CSF1R 0 | CSK 0 | CSNK1A1 = 0 | CSNK1D 0 | DDR1 = 0 | DYRK1B 0 | DYRK2 = 0

O=C1c2ccc(Nc3ccc(F)cc3F)cc2CCc2ccc(OC[C@H](O)CO)cc21 [Skepinone-L] (2.5 µM)
inactive: BRAF_V600E 0 | BTK 0 | CAMK2A 0 | CAMK2G 0 | CDK10 = 0 | CDK2 = 0 | CDK3 = 0 | CDK4 = 0 | CDK5 = 0 | CDK6 = 0 | CDK7 = 0 | CDK9 = 0 | CHEK2 = 0 | CSF1R 0 | CSK 0 | CSNK1A1 = 0 | CSNK1D 0 | DDR1 = 0 | DYRK1B 0 | DYRK2 = 0

COc1ccc([C@@H]2CC(=O)c3c(O)cc(O)cc3O2)cc1O [Hesperetin] (10 µM)
inactive: BRAF_V600E 0 | BTK 0 | CAMK2A 0 | CAMK2G 0 | CDK10 = 0 | CDK2 = 0 | CDK3 = 0 | CDK4 = 0 | CDK5 = 0 | CDK6 = 0 | CDK7 = 0 | CDK9 = 0 | CHEK2 = 0 | CSF1R 0 | CSK 0 | CSNK1A1 = 0 | CSNK1D 0 | DDR1 = 0 | DYRK1B 0 | DYRK2 = 0

C=C(C)C(=O)Nc1cccc(-c2ncnc3[nH]cc(C(=O)OCC)c23)c1 (10 µM)
inactive: BRAF_V600E 0 | BTK 0 | CAMK2A 0 | CAMK2G 0 | CDK10 = 0 | CDK2 = 0 | CDK3 = 0 | CDK4 = 0 | CDK5 = 0 | CDK6 = 0 | CDK7 = 0 | CDK9 = 0 | CHEK2 = 0 | CSF1R 0 | CSK 0 | CSNK1A1 = 0 | CSNK1D 0 | DDR1 = 0 | DYRK1B 0 | DYRK2 = 0

CC(C)CN(CC(=O)N1CCN(CC(OCc2ccc3ccccc3c2)c2ccc(Cl)cc2Cl)CC1)CC(C)C (stereo not given) [LYN-1604 (dihydrochloride)] (2.5 µM)
inactive: BRAF_V600E 0 | BTK 0 | CAMK2A 0 | CAMK2G 0 | CDK10 = 0 | CDK2 = 0 | CDK3 = 0 | CDK4 = 0 | CDK5 = 0 | CDK6 = 0 | CDK7 = 0 | CDK9 = 0 | CHEK2 = 0 | CSF1R 0 | CSK 0 | CSNK1A1 = 0 | CSNK1D 0 | DDR1 = 0 | DYRK1B 0 | DYRK2 = 0

CC(C)(C)NC(=O)c1cncn1C1CCN(c2ccc(-c3nnc(C(F)(F)F)o3)cn2)CC1 (10 µM)
inactive: BRAF_V600E 0 | BTK 0 | CAMK2A 0 | CAMK2G 0 | CDK10 = 0 | CDK2 = 0 | CDK3 = 0 | CDK4 = 0 | CDK5 = 0 | CDK6 = 0 | CDK7 = 0 | CDK9 = 0 | CHEK2 = 0 | CSF1R 0 | CSK 0 | CSNK1A1 = 0 | CSNK1D 0 | DDR1 = 0 | DYRK1B 0 | DYRK2 = 0

CS(=O)(=O)c1ccc(-c2noc(C(F)(F)F)c2-c2ccccc2)cc1 (10 µM)
inactive: BRAF_V600E 0 | BTK 0 | CAMK2A 0 | CAMK2G 0 | CDK10 = 0 | CDK2 = 0 | CDK3 = 0 | CDK4 = 0 | CDK5 = 0 | CDK6 = 0 | CDK7 = 0 | CDK9 = 0 | CHEK2 = 0 | CSF1R 0 | CSK 0 | CSNK1A1 = 0 | CSNK1D 0 | DDR1 = 0 | DYRK1B 0 | DYRK2 = 0

Cc1cc(O)c(C(C)C)cc1N=O [Poloxime] (10 µM)
inactive: BRAF_V600E 0 | BTK 0 | CAMK2A 0 | CAMK2G 0 | CDK10 = 0 | CDK2 = 0 | CDK3 = 0 | CDK4 = 0 | CDK5 = 0 | CDK6 = 0 | CDK7 = 0 | CDK9 = 0 | CHEK2 = 0 | CSF1R 0 | CSK 0 | CSNK1A1 = 0 | CSNK1D 0 | DDR1 = 0 | DYRK1B 0 | DYRK2 = 0
